The record followed here is the supplement of paper PMC10735217.

SMILES strings stand for the structures. Where a name gives a salt, the structure may show the parent alone. The list shows a part of the results. Single values are uncertain here, since repeats match poorly.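 Human kidney-derived cells stably carry a construct in which eight TEAD-binding elements drive luciferase, measured by luminescence in a drug-repurposing library screen. A hit is any compound whose signal exceeds the plate mean by more than five robust Z scores.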

This assay has as its system HEK293A TEAD-LUC reporter. Briefly: TEAD-luciferase reporter activity (YAP activation), robust Z score vs plate; higher = stronger YAP/TEAD activation. Conditions: 24 h. A general note: A reporter such as luciferase makes a cellular process visible.

As for `COC(=O)C1=C(C)NC(C)=C(C(=O)OC(C)C)C1c1ccccc1[N+](=O)[O-]` (stereo not drawn), the TEAD-luciferase reporter activity was inactive: -1.16 (compound concentration: 200 nM), inactive: 2.13 (compound concentration: 2 uM) and inactive: -0.63 (compound concentration: 10 uM).
With `CNC(=O)c1ccc(N2C(=S)N(c3ccc(C#N)c(C(F)(F)F)c3)C(=O)C2(C)C)cc1F` [enzalutamide], the TEAD-luciferase reporter activity is inactive: -2.65 (compound concentration: 200 nM), inactive: -2.04 (compound concentration: 2 uM) and inactive: 0.433 (compound concentration: 10 uM).
On to `CCCCN(CCCC)CCNc1nc(-c2ccccc2)no1` [Butalamine], for which the TEAD-luciferase reporter activity was inactive: 1.08 (compound concentration: 200 nM), inactive: 0.00691 (compound concentration: 2 uM) and inactive: -0.0318 (compound concentration: 10 uM).
Take `Clc1ccc(C2CNC(C3CC3)C2)cc1` (stereo not drawn): the TEAD-luciferase reporter activity reads like this: (compound concentration: 200 nM) inactive: -0.923; (compound concentration: 2 uM) inactive: 2.49; (compound concentration: 10 uM) inactive: -0.796.
As to `CCCCCNCC(N)=O` [Milacemide], the TEAD-luciferase reporter activity is, setting by setting: (compound concentration: 200 nM) inactive: -1.8; (compound concentration: 2 uM) inactive: -0.426; (compound concentration: 10 uM) inactive: -1.15.
In the same order, the values of `Cc1ccc(COC(=O)N2CCC(CNc3ncccn3)C(F)C2)cc1` (stereo not drawn) are inactive: 2.18, inactive: -0.461 and inactive: 0.884.
`C[C@H](NS(C)(=O)=O)c1ccc(S(=O)(=O)c2ccc(Cl)cc2S(=O)(=O)c2ccccc2F)cc1`: the TEAD-luciferase reporter activity (compound concentration: 200 nM) is inactive: -0.496, the TEAD-luciferase reporter activity (compound concentration: 2 uM) was inactive: 0.689 and the TEAD-luciferase reporter activity (compound concentration: 10 uM) is inactive: -1.02.
With `C#C[C@]1(CO)O[C@@H](n2cnc3c(N)nc(F)nc32)C[C@@H]1O`, the TEAD-luciferase reporter activity was inactive: 1.45 (compound concentration: 200 nM), inactive: -0.421 (compound concentration: 2 uM) and inactive: 0.928 (compound concentration: 10 uM).
Turning to `COC(=O)N1CCN(Cc2cccc(NC(=O)Nc3ccc(C)nc3)c2F)CC1` [omecamtiv mecarbil], the TEAD-luciferase reporter activity is inactive: -0.5 (compound concentration: 200 nM), inactive: 0.887 (compound concentration: 2 uM) and inactive: -0.506 (compound concentration: 10 uM).
In the same order, the values of `COC1=C(C)C(=O)C(/C=C(\CCCCCc2cccnc2)C(=O)O)=C(C)C1=O` are inactive: -1.08, inactive: -0.782 and inactive: -0.347.
In the same order, the values of `O=C(CCCN1CCC(O)(c2ccc(Cl)cc2)CC1)c1ccc(F)cc1` [Haloperidol] are inactive: 2.25, inactive: 1.09 and inactive: -1.52.
With `CC(Cc1ccccc1)(NC(=O)CN)c1ccccc1` (stereo not drawn) [Remacemide hydrochloride], the TEAD-luciferase reporter activity (compound concentration: 2 uM) was inactive: -2.02.
Turning to `Cc1nc2cc(NC(=O)c3ccc(-c4ccc(F)cc4)nc3C)ccc2s1`, the TEAD-luciferase reporter activity by setting is: (compound concentration: 200 nM) inactive: 0.0808; (compound concentration: 2 uM) inactive: 0.269; (compound concentration: 10 uM) active: 8.75.
Take `O=C1CC(=O)[O][Pt]2([NH2+]C[C@H]3OC4(CCCC4)O[C@@H]3C[NH2+]2)[O]1`: the TEAD-luciferase reporter activity (compound concentration: 200 nM) was inactive: -1.6, the TEAD-luciferase reporter activity (compound concentration: 2 uM) was inactive: 0.309 and the TEAD-luciferase reporter activity (compound concentration: 10 uM) was inactive: -1.82.
As to `CNC(=O)c1cc(OC)c(O[C@@H](C)C(=O)N2CCN(C(=O)c3ccccc3)C[C@H]2C)cn1`, the TEAD-luciferase reporter activity (compound concentration: 200 nM) is inactive: 1.64, the TEAD-luciferase reporter activity (compound concentration: 2 uM) was inactive: -0.989 and the TEAD-luciferase reporter activity (compound concentration: 10 uM) was inactive: 2.26.
Turning to `CN1C(CCl)Nc2cc(Cl)c(S(N)(=O)=O)cc2S1(=O)=O` (stereo not drawn) [Methyclothiazide], the TEAD-luciferase reporter activity is inactive: -0.82 (compound concentration: 200 nM), inactive: -1.42 (compound concentration: 2 uM) and inactive: 0.445 (compound concentration: 10 uM).
For `O=C(OC[C@H]1O[C@@H](OC(=O)c2cc(O)c(O)c(OC(=O)c3cc(O)c(O)c(O)c3)c2)[C@H](OC(=O)c2cc(O)c(O)c(OC(=O)c3cc(O)c(O)c(O)c3)c2)[C@@H](OC(=O)c2cc(O)c(O)c(OC(=O)c3cc(O)c(O)c(O)c3)c2)[C@@H]1OC(=O)c1cc(O)c(O)c(OC(=O)c2cc(O)c(O)c(O)c2)c1)c1cc(O)c(O)c(OC(=O)c2cc(O)c(O)c(O)c2)c1`, the TEAD-luciferase reporter activity (compound concentration: 200 nM) is inactive: -0.0382, the TEAD-luciferase reporter activity (compound concentration: 2 uM) was inactive: -1.76 and the TEAD-luciferase reporter activity (compound concentration: 10 uM) was inactive: -0.763.
In the same order, the values of `O=C(NCc1c(F)cc(F)cc1F)c1cn2c(c(O)c1=O)C(=O)N1[C@H]3CC[C@H](C3)O[C@@H]1C2` [Bictegravir] are inactive: -1.27, inactive: -0.34 and inactive: -0.513.
On to `N=C(N)NCCC[C@H](NC(=O)OCCCCCn1cnc2c(O)ncnc21)C(=O)O`, for which the TEAD-luciferase reporter activity by setting is: (compound concentration: 200 nM) inactive: -1.48; (compound concentration: 2 uM) inactive: -2.14; (compound concentration: 10 uM) inactive: 0.673.
In the same order, the values of `Cn1cc(C(=O)NCc2ccc(Cl)cc2)c(=O)c2cc(CN3CCOCC3)sc21` are inactive: -1.17, inactive: 2.31 and inactive: 0.12.
For `Cc1cn(C2CC(O)C(CO)O2)c(=O)[nH]c1=O` (stereo not drawn) [Thymidine], the TEAD-luciferase reporter activity is inactive: -0.972 (compound concentration: 200 nM), inactive: -0.309 (compound concentration: 2 uM) and inactive: 0.844 (compound concentration: 10 uM).
The corresponding values for `Cc1cccc(/C=N/N2CCN(C(c3ccccc3)c3ccccc3)CC2)n1` [ropizine] are inactive: -1.27, inactive: -0.594 and inactive: 0.919.
Turning to `CCc1noc(CNc2cc(-c3ccccc3)nc3c(C)c(C)nn23)n1`, the TEAD-luciferase reporter activity runs as follows: (compound concentration: 200 nM) inactive: -1.05; (compound concentration: 2 uM) inactive: -1.03; (compound concentration: 10 uM) inactive: 0.405.
Consider `CCOC(=O)c1ncc2[nH]c3cccc(OC(C)C)c3c2c1C`, for which the TEAD-luciferase reporter activity reads like this: (compound concentration: 200 nM) inactive: 1.29; (compound concentration: 2 uM) inactive: -0.728; (compound concentration: 10 uM) inactive: 0.277.
As to `Cc1oc(-c2ccccc2)nc1CCOc1ccc(CC2C(=O)NOC2=O)cc1` (stereo not drawn), the TEAD-luciferase reporter activity is, setting by setting: (compound concentration: 200 nM) inactive: -0.851; (compound concentration: 2 uM) inactive: -0.409; (compound concentration: 10 uM) inactive: -1.39.
Turning to `O=C(CS)Nc1ccccc1`, the TEAD-luciferase reporter activity is, setting by setting: (compound concentration: 200 nM) inactive: 0.618; (compound concentration: 2 uM) inactive: 1.89; (compound concentration: 10 uM) inactive: -0.229.
In the same order, the values of `CS(=O)(=O)CCCNCC(O)COc1ccc(C#N)cc1` (stereo not drawn) are inactive: 1.99, inactive: -0.621 and inactive: 4.35.
For the compound `NC(=O)Nc1ccc(S(=O)(=O)c2ccc(N)cc2)cc1`, the TEAD-luciferase reporter activity runs as follows: (compound concentration: 200 nM) inactive: -1.19; (compound concentration: 2 uM) inactive: 0.337; (compound concentration: 10 uM) inactive: 0.589.
Take `[K][Br]`: the TEAD-luciferase reporter activity is, setting by setting: (compound concentration: 200 nM) inactive: -0.612; (compound concentration: 2 uM) inactive: -1.61; (compound concentration: 10 uM) inactive: -1.21.
Turning to `Oc1ccc(O)cc1` [hydroqui   , 1.5%], the TEAD-luciferase reporter activity (compound concentration: 2 uM) was inactive: 0.393.
Regarding `Oc1ccc(O)cc1`, the TEAD-luciferase reporter activity was inactive: -0.738 (compound concentration: 200 nM) and inactive: 2.7 (compound concentration: 10 uM).
